From PubChem BioAssay AID504842 (National Center for Advancing Translational Sciences (NCATS), 2011)
Among all 330,000 compounds or so, about 100 (0.03%) were called active. The shares of active, inactive and inconclusive entries below differ from those in the screen. Calls come from the whole dose curve; as a rule, active = well fitted inhibition curve with a large enough effect; inconclusive = small, poorly fitted or top-dose-only effect; inactive = flat fitted curve, though single readings scatter. Where the call is inconclusive, the potency comes from a doubtful curve fit.

test system: Chaperonin Mm-Cpn (Methanococcus maripaludis); experiment: Inhibitors of TCP-1 ring complex (TRiC) of Methanococcus maripaludis (MmCpn): qHTS; conditions: purified Mm-Cpn ATPase, ADP Transcreener TR-FRET; note: nearly all actives have a fitted effect of over 80% in size;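 for potency: enzyme at 25 nM with ATP substrate at 10 µM during the reaction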
How it was run: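 ATP (10 uM final) was added to archaeal chaperonin (25 nM final) after 10 min exposure to test compound at 37°C; after 30 min further incubation, ADP was detected by competitive TR-FRET.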
Potency is the fitted concentration of half-maximal effect.

SMILES	Potency
C=CCn1c(-c2cccnc2Cl)nc2ccccc21	inconclusive: 25.1 µM [inhibitor, single point]
Cc1cccc(S(=O)(=O)Nc2ccc(-c3nc4ccc(C)cc4s3)cc2)c1	inconclusive: 112 µM [inhibitor, single point]
O=C(O)C1CSC2(CCN(Cc3ccccc3)CC2)N1 (centres undefined)	inactive
N#CCN(N=Nc1ccccc1)c1ccccc1	inconclusive: 22.4 µM [inhibitor, single point]
Cc1ccc(C2=NC3(CCCC3)NC2=S)cc1	inactive
COc1ccc(C[C@H]2CN3C(=NC[C@@H]3Cc3ccccc3)N2C[C@H](C)NC(=O)CCC2CCCCC2)cc1	inconclusive: 22.4 µM [inhibitor, single point]
C=CCOc1ccc(/C(O)=C2/C(=O)C(=O)N(CCCn3ccnc3)C2c2ccco2)cc1 (centres undefined)	inactive
Cc1cc(OCC(=O)Nc2nnc(C3CC3)s2)ccc1[N+](=O)[O-]	inactive
CCOc1cc(-c2sc(Nc3ccc(CC)cc3)n[n+]2-c2ccccc2)ccc1OC	inconclusive: 112 µM [inhibitor, partial curve, poor fit]
COC(=O)C(C(=O)OC)c1ncc(C(F)(F)F)cc1Cl	inconclusive: 56.2 µM [inhibitor, single point]
Cc1cc2nc(-c3ccc(SCc4ccccc4C#N)nc3)[nH]c2cc1C	inconclusive: 63.1 µM [inhibitor, single point]
O=C1CC(C(=O)O)S/C(=N\N=C\c2ccc(Br)cc2)N1 (centres undefined)	inactive
COc1ccc(C(=O)C2CCCN(C(=O)CCc3scnc3C)C2)c(C)c1 (centres undefined)	inconclusive: 112 µM [inhibitor, single point]
COc1cc(C(=O)NNC(=O)c2ccc3ccccc3n2)cc(OC)c1OC	inconclusive: 79.4 µM [inhibitor, single point]
Cc1ccc(C)c(SCC(=O)NNC(=O)c2ccccc2)c1	inactive
O=C(Nc1nnc(SCc2ccccc2)s1)C1=COCCO1	inconclusive: 100 µM [inhibitor, single point]
Cc1ccccc1OCCCSc1nc2ccccc2[nH]1	inconclusive: 70.8 µM [inhibitor, single point]
CN(C)CCNc1ncnc2c1sc1nc(-c3ccccc3)c3c(c12)CCCC3	inactive
CC(Sc1nnc(NCc2ccccc2)s1)C(=O)Nc1ccc2c(c1)C(=O)c1ccccc1C2=O (centres undefined)	inactive
Cc1ccc(-c2csc(N(CCCN(C)C)C(=O)c3ccco3)n2)cc1	inactive
Cc1ccc2[nH]cc(C(=O)CN3CCN(c4ccccn4)CC3)c2c1	inconclusive: 100 µM [inhibitor, single point]
CCCCOC(=O)CNc1n[nH]c(=S)[nH]c1=O	inconclusive: 25.1 µM [inhibitor, partial curve, poor fit]

SMILES	Potency
O=C(c1ccccc1)N1N=C(c2ccccc2)CC1c1cccs1 (centres undefined)	inconclusive: 100 µM [inhibitor, single point]
Cc1cc2n(n1)C(c1ccsc1)Nc1ccccc1-2 (centres undefined)	inconclusive: 63.1 µM [inhibitor, single point]
C/C(=N\NS(C)(=O)=O)c1ccccc1	inconclusive: 89.1 µM [inhibitor, single point]
COc1ccc2c(C)c(CCC(=O)NC3CC3)c(=O)oc2c1	inconclusive: 100 µM [inhibitor, single point]
COc1ccc(Cl)cc1C(=O)Nc1ccc(CN2CCCCC2)cc1	inconclusive: 15.8 µM [inhibitor, single point]
C#CCN(Cc1ccco1)C(=O)c1cc(COc2ccc(F)cc2Cl)on1	inactive
O=C(C1CC(=O)N(c2ccc(F)cc2)C1)N1CCOCC1 (centres undefined)	inconclusive: 12.6 µM [inhibitor, single point]
c1ccc(Nc2c(-c3ccco3)nc3ccccn23)cc1	inactive
O=C(NCc1ccco1)/C(=C\C=C\c1ccccc1)NC(=O)c1ccccc1Br	inconclusive: 22.4 µM [inhibitor, single point]
Clc1cccc(Cl)c1CNCCCSc1ncccn1	inactive
O=C(CCc1nnc2n(Cc3ccc(Cl)cc3)c(=O)c3ccccc3n12)N1CCN(c2ccccn2)CC1	inconclusive: 6.31 µM [inhibitor, single point]
Cc1c(C(=O)O)oc2ccc(S(=O)(=O)N3CCC(C)CC3)cc12	inconclusive: 8.91 µM [inhibitor, single point]
CN(C)CCOC(c1ccccc1)c1ccccc1	inactive
O=C(Cn1cnc2ccccc2c1=O)Nc1ccc(S(=O)(=O)N2CCOCC2)cc1	inconclusive: 100 µM [inhibitor, single point]
CCOc1cc(C2CC(=O)N3CN(C4CCCCC4)CSC3=C2C#N)ccc1O (centres undefined)	inactive
O=P(Cc1nnco1)(c1ccccc1)c1ccccc1	inconclusive: 12.6 µM [inhibitor, single point]
COc1cc(OC)cc(C(=O)NCc2ccc3c(c2)cc(C)n3C)c1	inconclusive: 70.8 µM [inhibitor, partial curve, poor fit]
COc1ccccc1Nc1nc(-c2sc(NC(=O)CC(C)C)nc2C)cs1	inconclusive: 56.2 µM [inhibitor, partial curve, poor fit]
C/C=C(/C)C(=O)OC1CC(C)(C)C[C@H]2C3=CC[C@@H]4[C@@]5(C)CCC(O[C@@H]6O[C@@H](C(=O)O)[C@@H](O)C(O[C@@H]7OC[C@H](O)[C@@H](O)[C@@H]7O[C@@H]7OC(CO)C(O)[C@@H](O)[C@@H]7O)C6O[C@@H]6OC(CO)C(O)C(O)C6O)[C@@](C)(CO)[C@@H]5CC[C@]4(C)[C@]3(C)CC(O)[C@@]12CO (some centres undefined)	inactive
Cc1cc(=O)[nH]c(N/N=C/c2ccc(Cl)cc2Cl)n1	inconclusive: 22.4 µM [inhibitor, single point]
COc1cc(/C=C/c2nnc3c4ccccc4ncn23)cc(OC)c1OC	inconclusive: 200 µM [inhibitor, partial curve, poor fit]
O=C(Nc1ccccc1)c1cccc(Cn2cc(C(F)(F)F)ccc2=O)c1	inconclusive: 14.1 µM [inhibitor, single point]

Exported as a markdown table: entries from further up.

| SMILES | Potency |
| --- | --- |
| O=C(Nc1nnc(SCc2ccccc2)s1)C1=COCCO1 | inconclusive: 100 µM [inhibitor, single point] |
| Cc1ccccc1OCCCSc1nc2ccccc2[nH]1 | inconclusive: 70.8 µM [inhibitor, single point] |
| CN(C)CCNc1ncnc2c1sc1nc(-c3ccccc3)c3c(c12)CCCC3 | inactive |
| CC(Sc1nnc(NCc2ccccc2)s1)C(=O)Nc1ccc2c(c1)C(=O)c1ccccc1C2=O (centres undefined) | inactive |
| Cc1ccc(-c2csc(N(CCCN(C)C)C(=O)c3ccco3)n2)cc1 | inactive |
| Cc1ccc2[nH]cc(C(=O)CN3CCN(c4ccccn4)CC3)c2c1 | inconclusive: 100 µM [inhibitor, single point] |
| CCCCOC(=O)CNc1n[nH]c(=S)[nH]c1=O | inconclusive: 25.1 µM [inhibitor, partial curve, poor fit] |
| O=C(c1ccccc1)N1N=C(c2ccccc2)CC1c1cccs1 (centres undefined) | inconclusive: 100 µM [inhibitor, single point] |
